According to the supplement of paper PMC10849652:
The list shows a part of the results.

The chains behind the UniProt entries cited, without tags or fusion partners. Where a name states a change or a piece, a line headed by the entry shows the natural chain unless it says otherwise.
UniProt P00480: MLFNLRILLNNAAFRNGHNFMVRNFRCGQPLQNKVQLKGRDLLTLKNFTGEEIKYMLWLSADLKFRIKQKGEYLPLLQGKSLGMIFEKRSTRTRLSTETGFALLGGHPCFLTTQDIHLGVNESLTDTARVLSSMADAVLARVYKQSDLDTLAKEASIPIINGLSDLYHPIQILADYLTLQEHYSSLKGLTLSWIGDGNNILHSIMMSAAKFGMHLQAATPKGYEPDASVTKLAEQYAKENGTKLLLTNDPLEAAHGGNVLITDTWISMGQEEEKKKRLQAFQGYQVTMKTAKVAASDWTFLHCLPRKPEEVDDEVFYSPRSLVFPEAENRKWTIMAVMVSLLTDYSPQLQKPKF
UniProt Q92621: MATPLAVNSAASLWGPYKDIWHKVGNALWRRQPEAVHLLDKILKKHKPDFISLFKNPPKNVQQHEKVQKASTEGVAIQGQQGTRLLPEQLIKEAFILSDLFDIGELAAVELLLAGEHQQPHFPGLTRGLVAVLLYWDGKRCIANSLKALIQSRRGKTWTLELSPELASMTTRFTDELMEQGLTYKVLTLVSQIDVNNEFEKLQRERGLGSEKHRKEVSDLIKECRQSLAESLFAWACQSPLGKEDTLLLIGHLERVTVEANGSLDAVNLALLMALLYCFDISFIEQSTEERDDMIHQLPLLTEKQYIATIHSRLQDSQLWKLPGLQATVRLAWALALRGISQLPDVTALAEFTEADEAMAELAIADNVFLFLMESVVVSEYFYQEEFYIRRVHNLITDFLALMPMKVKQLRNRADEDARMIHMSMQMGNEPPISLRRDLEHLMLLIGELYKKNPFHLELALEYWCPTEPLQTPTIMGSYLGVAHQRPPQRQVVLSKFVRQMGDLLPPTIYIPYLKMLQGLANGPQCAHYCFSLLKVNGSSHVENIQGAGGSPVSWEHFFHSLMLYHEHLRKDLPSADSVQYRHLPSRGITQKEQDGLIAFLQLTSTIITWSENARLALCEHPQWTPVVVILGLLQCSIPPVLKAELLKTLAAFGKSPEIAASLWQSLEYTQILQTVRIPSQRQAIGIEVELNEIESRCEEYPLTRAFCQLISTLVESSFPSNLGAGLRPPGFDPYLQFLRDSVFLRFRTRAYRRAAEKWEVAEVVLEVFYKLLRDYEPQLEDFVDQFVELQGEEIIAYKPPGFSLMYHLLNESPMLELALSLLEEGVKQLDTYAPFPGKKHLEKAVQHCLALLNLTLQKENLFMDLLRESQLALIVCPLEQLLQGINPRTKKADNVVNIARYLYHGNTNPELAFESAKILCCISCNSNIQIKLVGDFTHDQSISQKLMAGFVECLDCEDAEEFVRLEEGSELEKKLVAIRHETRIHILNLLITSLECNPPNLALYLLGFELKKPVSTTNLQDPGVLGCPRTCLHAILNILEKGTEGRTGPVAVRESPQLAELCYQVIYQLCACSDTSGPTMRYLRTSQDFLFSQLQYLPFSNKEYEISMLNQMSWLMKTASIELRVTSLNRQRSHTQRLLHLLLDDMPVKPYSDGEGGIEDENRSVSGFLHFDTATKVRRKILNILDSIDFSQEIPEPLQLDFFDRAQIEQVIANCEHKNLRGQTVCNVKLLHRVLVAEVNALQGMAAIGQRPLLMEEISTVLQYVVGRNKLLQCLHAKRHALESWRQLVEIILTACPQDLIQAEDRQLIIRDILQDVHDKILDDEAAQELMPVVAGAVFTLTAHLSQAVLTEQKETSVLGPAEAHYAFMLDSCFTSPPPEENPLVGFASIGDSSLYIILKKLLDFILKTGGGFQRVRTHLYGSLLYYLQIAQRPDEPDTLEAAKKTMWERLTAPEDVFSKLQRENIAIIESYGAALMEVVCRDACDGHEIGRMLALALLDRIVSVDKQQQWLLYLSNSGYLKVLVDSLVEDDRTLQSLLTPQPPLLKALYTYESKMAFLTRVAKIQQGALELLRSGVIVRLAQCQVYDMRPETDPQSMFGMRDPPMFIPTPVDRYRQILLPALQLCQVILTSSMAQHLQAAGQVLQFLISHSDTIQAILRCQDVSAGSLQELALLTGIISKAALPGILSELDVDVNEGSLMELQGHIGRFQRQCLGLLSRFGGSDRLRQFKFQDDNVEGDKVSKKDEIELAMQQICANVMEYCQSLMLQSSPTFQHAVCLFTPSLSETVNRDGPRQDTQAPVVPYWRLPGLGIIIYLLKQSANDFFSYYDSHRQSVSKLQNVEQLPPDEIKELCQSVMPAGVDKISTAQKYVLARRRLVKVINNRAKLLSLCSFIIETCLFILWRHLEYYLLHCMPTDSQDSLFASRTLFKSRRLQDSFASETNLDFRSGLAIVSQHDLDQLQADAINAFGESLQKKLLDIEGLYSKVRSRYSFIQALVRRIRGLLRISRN
UniProt Q96G74: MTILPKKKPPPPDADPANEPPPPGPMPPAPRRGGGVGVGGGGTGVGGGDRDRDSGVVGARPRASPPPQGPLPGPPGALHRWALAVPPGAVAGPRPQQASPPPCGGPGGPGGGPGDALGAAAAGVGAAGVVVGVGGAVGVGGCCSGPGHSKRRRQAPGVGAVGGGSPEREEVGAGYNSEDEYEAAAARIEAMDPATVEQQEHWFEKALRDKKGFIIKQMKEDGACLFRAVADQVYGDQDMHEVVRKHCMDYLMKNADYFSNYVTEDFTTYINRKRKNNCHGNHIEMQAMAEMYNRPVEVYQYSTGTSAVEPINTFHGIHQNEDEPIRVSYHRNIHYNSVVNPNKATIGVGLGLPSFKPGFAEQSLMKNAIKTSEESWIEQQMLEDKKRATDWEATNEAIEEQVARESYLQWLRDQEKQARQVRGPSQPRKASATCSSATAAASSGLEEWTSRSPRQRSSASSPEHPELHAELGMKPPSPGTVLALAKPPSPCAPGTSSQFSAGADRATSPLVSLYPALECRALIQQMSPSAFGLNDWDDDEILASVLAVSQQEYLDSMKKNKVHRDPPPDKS
UniProt Q96E52: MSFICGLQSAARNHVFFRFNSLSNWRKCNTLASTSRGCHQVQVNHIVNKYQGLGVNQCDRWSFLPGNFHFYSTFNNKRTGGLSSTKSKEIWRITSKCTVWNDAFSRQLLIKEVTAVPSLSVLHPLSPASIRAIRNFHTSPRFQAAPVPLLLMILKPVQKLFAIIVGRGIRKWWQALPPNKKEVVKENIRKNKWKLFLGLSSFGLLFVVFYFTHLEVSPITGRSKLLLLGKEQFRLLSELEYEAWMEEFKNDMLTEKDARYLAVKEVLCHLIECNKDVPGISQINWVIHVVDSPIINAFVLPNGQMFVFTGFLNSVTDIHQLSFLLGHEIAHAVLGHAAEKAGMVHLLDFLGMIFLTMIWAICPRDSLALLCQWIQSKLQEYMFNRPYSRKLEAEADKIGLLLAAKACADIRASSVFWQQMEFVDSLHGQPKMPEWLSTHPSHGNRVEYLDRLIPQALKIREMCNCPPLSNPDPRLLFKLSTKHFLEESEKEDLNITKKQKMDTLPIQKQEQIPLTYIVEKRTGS
UniProt O15504: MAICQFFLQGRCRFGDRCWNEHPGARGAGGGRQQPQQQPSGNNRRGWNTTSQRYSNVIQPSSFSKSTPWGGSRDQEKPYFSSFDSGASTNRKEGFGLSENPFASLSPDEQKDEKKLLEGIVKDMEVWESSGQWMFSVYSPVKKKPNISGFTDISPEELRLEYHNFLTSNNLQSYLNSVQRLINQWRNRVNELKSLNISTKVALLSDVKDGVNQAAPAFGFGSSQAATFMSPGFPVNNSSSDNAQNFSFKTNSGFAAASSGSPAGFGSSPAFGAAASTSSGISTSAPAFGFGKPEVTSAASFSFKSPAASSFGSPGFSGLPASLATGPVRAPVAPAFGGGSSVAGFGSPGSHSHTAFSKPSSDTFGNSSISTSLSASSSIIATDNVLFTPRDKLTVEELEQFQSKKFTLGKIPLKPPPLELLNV
UniProt Q96SU4: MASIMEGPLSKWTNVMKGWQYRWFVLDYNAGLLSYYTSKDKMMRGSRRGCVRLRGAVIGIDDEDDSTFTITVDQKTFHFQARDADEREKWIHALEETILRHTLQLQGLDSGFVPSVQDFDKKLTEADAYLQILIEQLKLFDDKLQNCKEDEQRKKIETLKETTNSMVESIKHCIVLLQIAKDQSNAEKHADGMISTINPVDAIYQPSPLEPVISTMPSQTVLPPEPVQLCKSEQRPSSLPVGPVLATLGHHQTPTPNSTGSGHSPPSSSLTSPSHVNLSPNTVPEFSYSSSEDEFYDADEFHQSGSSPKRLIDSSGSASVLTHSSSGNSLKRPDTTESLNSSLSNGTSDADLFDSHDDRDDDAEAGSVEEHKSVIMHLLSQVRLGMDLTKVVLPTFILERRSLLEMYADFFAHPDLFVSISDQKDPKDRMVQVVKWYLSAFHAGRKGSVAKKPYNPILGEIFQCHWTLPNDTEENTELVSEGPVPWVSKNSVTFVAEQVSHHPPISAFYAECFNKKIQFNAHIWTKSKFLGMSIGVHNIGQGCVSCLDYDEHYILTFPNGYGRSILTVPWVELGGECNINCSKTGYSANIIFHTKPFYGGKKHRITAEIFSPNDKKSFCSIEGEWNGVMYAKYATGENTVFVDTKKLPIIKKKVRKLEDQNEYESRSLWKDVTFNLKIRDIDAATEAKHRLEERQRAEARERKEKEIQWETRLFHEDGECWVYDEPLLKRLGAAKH
UniProt O96013: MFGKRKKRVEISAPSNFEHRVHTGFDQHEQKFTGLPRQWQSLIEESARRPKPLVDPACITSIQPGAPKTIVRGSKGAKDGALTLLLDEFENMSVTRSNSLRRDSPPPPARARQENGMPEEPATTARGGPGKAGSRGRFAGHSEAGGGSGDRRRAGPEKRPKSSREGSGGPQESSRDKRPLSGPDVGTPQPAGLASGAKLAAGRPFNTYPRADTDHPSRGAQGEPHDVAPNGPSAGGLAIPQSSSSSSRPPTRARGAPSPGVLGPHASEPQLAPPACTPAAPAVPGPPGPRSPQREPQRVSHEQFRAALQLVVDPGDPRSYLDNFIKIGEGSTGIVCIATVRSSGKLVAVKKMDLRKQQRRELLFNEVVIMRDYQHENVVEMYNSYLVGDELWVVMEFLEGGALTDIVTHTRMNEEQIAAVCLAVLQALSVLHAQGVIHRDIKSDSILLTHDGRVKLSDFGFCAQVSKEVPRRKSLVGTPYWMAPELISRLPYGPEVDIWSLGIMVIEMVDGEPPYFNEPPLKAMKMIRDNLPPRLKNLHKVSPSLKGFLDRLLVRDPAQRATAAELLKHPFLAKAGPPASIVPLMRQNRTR
UniProt P37198: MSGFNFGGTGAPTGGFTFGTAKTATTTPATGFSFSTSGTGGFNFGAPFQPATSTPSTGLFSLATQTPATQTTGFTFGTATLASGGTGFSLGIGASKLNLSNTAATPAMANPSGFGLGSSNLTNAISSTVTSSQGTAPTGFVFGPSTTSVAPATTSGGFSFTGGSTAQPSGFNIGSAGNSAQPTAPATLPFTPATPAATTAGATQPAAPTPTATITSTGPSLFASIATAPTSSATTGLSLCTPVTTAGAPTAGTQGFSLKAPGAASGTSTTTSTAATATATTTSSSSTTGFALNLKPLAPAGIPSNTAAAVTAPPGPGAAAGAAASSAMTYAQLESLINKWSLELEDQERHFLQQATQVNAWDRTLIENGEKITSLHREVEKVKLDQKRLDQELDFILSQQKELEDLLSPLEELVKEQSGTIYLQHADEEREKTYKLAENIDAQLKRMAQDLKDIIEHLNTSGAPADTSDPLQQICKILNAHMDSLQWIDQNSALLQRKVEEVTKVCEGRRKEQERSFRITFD
UniProt Q9NVE7: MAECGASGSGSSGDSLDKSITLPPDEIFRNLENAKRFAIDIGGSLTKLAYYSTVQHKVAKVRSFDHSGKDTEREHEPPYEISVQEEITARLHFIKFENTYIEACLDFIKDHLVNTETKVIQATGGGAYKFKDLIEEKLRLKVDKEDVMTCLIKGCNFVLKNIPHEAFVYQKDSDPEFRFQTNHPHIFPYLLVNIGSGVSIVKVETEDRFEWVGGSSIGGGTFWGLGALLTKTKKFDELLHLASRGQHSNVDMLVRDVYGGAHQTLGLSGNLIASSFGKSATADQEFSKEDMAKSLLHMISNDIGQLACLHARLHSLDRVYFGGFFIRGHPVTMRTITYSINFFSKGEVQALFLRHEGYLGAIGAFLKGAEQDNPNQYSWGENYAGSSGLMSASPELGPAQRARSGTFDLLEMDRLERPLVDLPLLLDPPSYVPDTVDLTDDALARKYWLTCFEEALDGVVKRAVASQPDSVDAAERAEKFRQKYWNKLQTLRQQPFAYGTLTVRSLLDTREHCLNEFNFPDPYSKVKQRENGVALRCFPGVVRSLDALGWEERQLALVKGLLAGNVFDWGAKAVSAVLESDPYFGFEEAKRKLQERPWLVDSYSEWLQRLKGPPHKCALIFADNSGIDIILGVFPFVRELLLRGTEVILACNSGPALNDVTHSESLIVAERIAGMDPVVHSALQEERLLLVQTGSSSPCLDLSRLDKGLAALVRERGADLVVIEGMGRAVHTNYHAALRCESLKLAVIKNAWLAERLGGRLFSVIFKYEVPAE

Tests used:
Experiment in all cases: log2 fold change, soluble protein after heating vs DMSO (PISA); higher = thermal stabilisation; K562 lysate, 10 uM; active = over 0.2 and 3.5 SD of the protein, either way, in both replicates (recomputed)
[1] = compound: CCCS(=O)(=O)Nc1ccc(F)c(C(=O)c2c[nH]c3ncc(-c4ccc(Cl)cc4)cc23)c1F [vemurafenib]
Procedure, shortened: (§1)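 A 30 min treatment with 10 μM compound was applied to crude K562 extract at 1 mg/mL protein in PBS pH 7.4 with 1 mM MgCl2. Heating for 3 min spanned 48°C-58°C, after which aliquots were pooled, adjusted to 0.5% NP-40 at 4°C and spun at 21,000xg for 90 min. TMTpro 16plex LC-MS/MS of the supernatant, with channel sums equalised, gave values recorded as log-two fold change in thermal stability against solvent controls, from duplicates.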

[2] = compound: CCCS(=O)(=O)Nc1ccc(F)c(C(=O)c2c[nH]c3ncc(Cl)cc23)c1F
Procedure, shortened: as §1

[3] = compound: CCN(CCCOc1ccc2c(Nc3cc(CC(=O)Nc4cccc(F)c4)[nH]n3)ncnc2c1)CCOP(=O)(O)O [barasertib]
Procedure, shortened: as §1

[4] = compound: CC[C@@H]1C(=O)N(C)c2cnc(Nc3ccc(C(=O)NC4CCN(C)CC4)cc3OC)nc2N1C1CCCC1
Procedure, shortened: as §1

[5] = compound: CC[C@@H]1C(=O)N(C)c2cnc(Nc3ccc(C(=O)N[C@H]4CC[C@H](N5CCN(CC6CC6)CC5)CC4)cc3OC)nc2N1C(C)C [volasertib]
Procedure, shortened: as §1

[6] = compound: CCn1c(C(=O)N(C2CC2)C2CC2)cc2c3c(ncn3C)c(Nc3cc(C)n(C)n3)nc21
Procedure, shortened: as §1

[7] = compound: CCn1cc(-c2ccnc3[nH]c(-c4cccc(CN(C)C)c4)cc23)c(-c2ccc(NC(=O)N(C)C)cc2)n1
Procedure, shortened: as §1

[8] = compound: CN1CCC(CNc2ccc3ncc(-c4cccc(OC(F)(F)F)c4)n3n2)CC1
Procedure, shortened: as §1

[9] = compound: CN1CCN(CCOc2cc(OC3CCOCC3)c3c(Nc4c(Cl)ccc5c4OCO5)ncnc3c2)CC1 [saracatinib]
Procedure, shortened: as §1

[10] = compound: CN1CCN(c2nc(C3=C(c4c[nH]c5ccccc45)C(=O)NC3=O)c3ccccc3n2)CC1 [sotrastaurin]
Procedure, shortened: as §1

[11] = compound: CN1CC[C@H](c2c(O)cc(O)c3c(=O)cc(-c4ccccc4Cl)oc23)[C@H](O)C1 [alvocidib]
Procedure, shortened: as §1

[12] = compound: CN1CCc2c(c3ccccc3n2Cc2ccc(C(=O)NO)cc2)C1 [Tubastatin A]
Procedure, shortened: as §1

[13] = compound: CNC(=O)C1=CC=CC=C1NC2=NC(=NC=C2Cl)NC3=C(C=C(C=C3)N4CCOCC4)OC
Procedure, shortened: as §1

[14] = compound: CNC(=O)c1ccc(Nc2ncc(C(F)(F)F)c(NCc3nccnc3N(C)S(C)(=O)=O)n2)cc1 [defactinib]
Procedure, shortened: as §1

[15] = compound: CNc1nc(-c2ccc3c(N)n[nH]c3c2)cc(N2C[C@@H](C(=O)NC3CCCCC3)CC[C@H]2C)n1
Procedure, shortened: as §1

[16] = compound: COC(=O)N[C@@H](C)CNc1nccc(-c2cn(C(C)C)nc2-c2cc(Cl)cc(NS(C)(=O)=O)c2F)n1 [encorafenib]
Procedure, shortened: as §1

[17] = compound: COC(=O)[C@H](CCSC)NC(=O)C1=C(C=C(C=C1)NC[C@H](CS)N)C2=CC=CC=C2
Procedure, shortened: as §1

[18] = compound: COc1cc(Nc2ncc3c(n2)-c2ccc(Cl)cc2C(c2c(F)cccc2OC)=NC3)ccc1C(=O)O [alisertib]
Procedure, shortened: as §1

[19] = compound: COc1cc2nc(-c3cc(F)ccc3O)nc(N[C@@H]3CNC[C@H]3C(C)(C)O)c2cc1OC
Procedure, shortened: as §1

[20] = compound: COc1cc2ncnc(Nc3ccc(F)c(Cl)c3)c2cc1OCCCN1CCOCC1 [gefitinib]
Procedure, shortened: as §1

| Target | log2 fold change [1] | log2 fold change [2] | log2 fold change [3] | log2 fold change [4] | log2 fold change [5] | log2 fold change [6] | log2 fold change [7] | log2 fold change [8] | log2 fold change [9] | log2 fold change [10] | log2 fold change [11] | log2 fold change [12] | log2 fold change [13] | log2 fold change [14] | log2 fold change [15] | log2 fold change [16] | log2 fold change [17] | log2 fold change [18] | log2 fold change [19] | log2 fold change [20] |
| --- | --- | --- | --- | --- | --- | --- | --- | --- | --- | --- | --- | --- | --- | --- | --- | --- | --- | --- | --- | --- |
| NUP214 (UniProt P35658) | inactive: 0.011 | inactive: 0.003 | inactive: 0.044 | inactive: 0.009 | inactive: -0.033 | inactive: 0.003 | inactive: -0.08 | inactive: 0.065 | inactive: 0.027 | inactive: 0.008 | inactive: -0.039 | inactive: -0.029 | inactive: -0.015 | inactive: 0.016 | inactive: 0.012 | inactive: 0.029 | inactive: 0.04 | inactive: 0.029 | inactive: 0.017 | inactive: 0.024 |
| P4HA1 (UniProt P13674) | inactive: 0.019 | inactive: 0.016 | inactive: 0.019 | inactive: -0.006 | inactive: -0.019 | inactive: -0.005 | inactive: 0.014 | inactive: 0 | inactive: 0.017 | inactive: -0.007 | inactive: 0 | inactive: -0.018 | inactive: 0.053 | inactive: 0.03 | inactive: 0.001 | inactive: 0.015 | inactive: 0.012 | inactive: 0.004 | inactive: 0.024 | inactive: 0.014 |
| OTC (UniProt P00480) | inactive: 0.072 | inactive: -0.063 | inactive: 0.063 | inactive: -0.246 | inactive: 0.018 | inactive: -0.035 | inactive: -1.43 | inactive: 0.371 | inactive: 0.012 | inactive: 0.282 | active: -1.18 | inactive: 0.148 | inactive: -0.134 | inactive: -0.188 | inactive: -0.152 | inactive: -0.047 | inactive: -0.018 | inactive: 0.218 | inactive: -0.023 | inactive: 0.184 |
| OGDH (UniProt Q02218) | inactive: 0.062 | inactive: 0.005 | inactive: 0.068 | inactive: -0.056 | inactive: -0.049 | inactive: 0.01 | inactive: -0.045 | inactive: -0.078 | inactive: -0.022 | inactive: 0.014 | inactive: -0.025 | inactive: -0.038 | inactive: -0.018 | inactive: 0.06 | inactive: -0.026 | inactive: -0.017 | inactive: 0.114 | inactive: -0.013 | inactive: -0.012 | inactive: -0.032 |
| OSTF1 (UniProt Q92882) | inactive: -0.003 | inactive: -0.008 | inactive: 0.027 | inactive: -0.032 | inactive: -0.03 | inactive: 0 | inactive: -0.029 | inactive: 0.005 | inactive: 0.028 | inactive: -0.036 | inactive: -0.003 | inactive: -0.018 | inactive: -0.048 | inactive: 0.084 | inactive: 0.025 | inactive: -0.045 | inactive: -0.022 | inactive: 0.019 | inactive: -0.01 | inactive: -0.005 |
| OGFOD3 (UniProt Q6PK18) | inactive: -0.005 | inactive: 0.011 | inactive: -0.063 | inactive: -0.152 | inactive: -0.007 | inactive: -0.036 | inactive: 0.19 | inactive: -0.022 | inactive: -0.037 | inactive: -0.013 | inactive: 0.011 | inactive: 0.048 | inactive: -0.019 | inactive: -0.027 | inactive: 0.009 | inactive: 0.06 | inactive: -0.061 | inactive: 0.053 | inactive: 0.068 | inactive: 0.012 |
| NUP205 (UniProt Q92621) | inactive: 0.007 | inactive: 0.017 | inactive: 0.038 | inactive: -0.047 | inactive: -0.074 | inactive: 0.027 | inactive: -0.075 | inactive: -0.064 | inactive: 0.043 | inactive: 0.022 | inactive: -0.02 | inactive: -0.078 | inactive: 0.012 | inactive: 0.015 | inactive: -0.003 | inactive: 0.016 | inactive: -0.081 | inactive: 0.008 | inactive: 0 | inactive: -0.018 |
| OTUD5 isoform 5 (UniProt Q96G74) | inactive: -0.002 | inactive: 0.062 | inactive: -0.012 | inactive: 0.082 | inactive: 0.013 | inactive: -0.028 | inactive: -0.03 | inactive: -0.004 | inactive: -0.041 | inactive: 0.036 | inactive: -0.037 | inactive: 0.031 | inactive: 0.048 | inactive: -0.002 | inactive: 0.062 | inactive: 0.008 | inactive: -0.029 | inactive: -0.03 | inactive: 0.027 | inactive: -0.006 |
| OCIAD1 (UniProt Q9NX40) | inactive: -0.027 | inactive: 0.002 | inactive: -0.028 | inactive: 0.042 | inactive: 0.018 | inactive: -0.014 | inactive: -0.016 | inactive: -0.017 | inactive: 0.022 | inactive: -0.016 | inactive: 0.039 | inactive: 0.054 | inactive: 0.004 | inactive: -0.012 | inactive: 0.079 | inactive: 0.002 | inactive: 0.036 | inactive: -0.004 | inactive: 0.005 | inactive: 0.018 |
| PARK7 (UniProt Q99497) | inactive: 0.012 | inactive: -0.01 | inactive: 0.028 | inactive: 0.001 | inactive: 0.035 | inactive: -0.011 | inactive: 0.034 | inactive: -0.034 | inactive: -0.021 | inactive: -0.04 | inactive: 0.019 | inactive: 0.057 | inactive: -0.009 | inactive: -0.07 | inactive: 0.075 | inactive: -0.054 | inactive: 0.004 | inactive: 0.018 | inactive: 0.013 | inactive: -0.005 |
| OMA1 (UniProt Q96E52) | inactive: -0.005 | inactive: 0.058 | inactive: -0.017 | inactive: 0.009 | inactive: -0.028 | inactive: 0 | inactive: -0.027 | inactive: -0.045 | inactive: -0.001 | inactive: -0.017 | inactive: -0.033 | inactive: -0.021 | inactive: -0.009 | inactive: 0.009 | inactive: -0.005 | inactive: -0.025 | inactive: -0.125 | inactive: -0.01 | inactive: -0.016 | inactive: -0.008 |
| NUP42 (UniProt O15504) | inactive: 0.087 | inactive: 0.027 | inactive: 0.024 | inactive: 0.05 | inactive: -0.013 | inactive: 0.019 | inactive: 0.177 | inactive: -0.122 | inactive: -0.026 | inactive: -0.021 | inactive: 0.032 | inactive: 0.05 | inactive: -0.073 | inactive: 0.045 | inactive: -0.025 | inactive: -0.057 | inactive: -0.065 | inactive: -0.014 | inactive: -0.043 | inactive: 0.041 |
| OSBPL9 isoform 2 (UniProt Q96SU4) | inactive: 0.004 | inactive: 0.047 | inactive: 0.067 | inactive: 0.011 | inactive: -0.062 | inactive: 0.08 | inactive: -0.067 | inactive: 0.043 | inactive: 0.009 | inactive: 0 | inactive: -0.008 | inactive: 0.015 | inactive: 0.029 | inactive: 0.044 | inactive: -0.031 | inactive: -0.015 | inactive: 0.104 | inactive: 0.045 | inactive: 0.051 | inactive: -0.027 |
| PAK4 (UniProt O96013) | inactive: -0.016 | inactive: -0.06 | inactive: -0.005 | inactive: -0.131 | inactive: -0.134 | inactive: 0.259 | inactive: 0.02 | inactive: 0.3 | inactive: -0.018 | inactive: 0.063 | inactive: -0.019 | inactive: -0.038 | inactive: 0.27 | inactive: 0.441 | inactive: -0.021 | inactive: -0.173 | inactive: -0.057 | inactive: 0.002 | inactive: 0.241 | inactive: -0.027 |
| NUP62 (UniProt P37198) | inactive: -0.022 | inactive: 0.012 | inactive: 0.1 | inactive: 0.028 | inactive: -0.007 | inactive: 0.024 | inactive: -0.045 | inactive: 0.03 | inactive: 0.03 | inactive: -0.013 | inactive: -0.047 | inactive: 0.058 | inactive: 0.001 | inactive: 0.029 | inactive: 0.042 | inactive: 0.066 | inactive: -0.051 | inactive: 0.031 | inactive: -0.014 | inactive: -0.011 |
| PANK4 (UniProt Q9NVE7) | inactive: 0.026 | inactive: 0.011 | inactive: 0.054 | inactive: -0.051 | inactive: -0.091 | inactive: 0.003 | inactive: -0.136 | inactive: 0.077 | inactive: 0.001 | inactive: 0.012 | inactive: -0.009 | inactive: -0.117 | inactive: 0.018 | inactive: 0.01 | inactive: 0.019 | inactive: -0.011 | active: 0.498 | inactive: -0.028 | inactive: 0.013 | inactive: -0.017 |

3 entries from above, set out differently.
Target	log2 fold change [1]	log2 fold change [2]	log2 fold change [3]	log2 fold change [4]	log2 fold change [5]	log2 fold change [6]	log2 fold change [7]	log2 fold change [8]	log2 fold change [9]	log2 fold change [10]	log2 fold change [11]	log2 fold change [12]	log2 fold change [13]	log2 fold change [14]	log2 fold change [15]	log2 fold change [16]	log2 fold change [17]	log2 fold change [18]	log2 fold change [19]	log2 fold change [20]
OMA1 (UniProt Q96E52)	inactive: -0.005	inactive: 0.058	inactive: -0.017	inactive: 0.009	inactive: -0.028	inactive: 0	inactive: -0.027	inactive: -0.045	inactive: -0.001	inactive: -0.017	inactive: -0.033	inactive: -0.021	inactive: -0.009	inactive: 0.009	inactive: -0.005	inactive: -0.025	inactive: -0.125	inactive: -0.01	inactive: -0.016	inactive: -0.008
NUP42 (UniProt O15504)	inactive: 0.087	inactive: 0.027	inactive: 0.024	inactive: 0.05	inactive: -0.013	inactive: 0.019	inactive: 0.177	inactive: -0.122	inactive: -0.026	inactive: -0.021	inactive: 0.032	inactive: 0.05	inactive: -0.073	inactive: 0.045	inactive: -0.025	inactive: -0.057	inactive: -0.065	inactive: -0.014	inactive: -0.043	inactive: 0.041
OSBPL9 isoform 2 (UniProt Q96SU4)	inactive: 0.004	inactive: 0.047	inactive: 0.067	inactive: 0.011	inactive: -0.062	inactive: 0.08	inactive: -0.067	inactive: 0.043	inactive: 0.009	inactive: 0	inactive: -0.008	inactive: 0.015	inactive: 0.029	inactive: 0.044	inactive: -0.031	inactive: -0.015	inactive: 0.104	inactive: 0.045	inactive: 0.051	inactive: -0.027
